Among the data in PubChem BioAssay AID1508600 (Functional Genomics Laboratory (NCATS/FGL), 2020) are z-score values, retold here.

Hit rate of the full screen: of about 53,000 sequences, about 3,700 (7%) were called active.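 How the source made its calls: active means gene knockdowns whose robust z-score for IL-1 alpha signal is at least 2 or at most -2, so actives lie on both sides; inactive means the rest.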 The list shows a part of the results.

The experiment is described as follows: Components of the Cytosolic LPS Sensing Pathway: Gene Identification via Genome-wide siRNA Screen.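 Further: robust z of the log signal after scaling to non-targeting control siRNA wells of the plate.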 Conditions: RAW264.7 macrophages, IL-1a HTRF, actives lie on both sides, screened at 100 nM (by protocol), cells primed 5 h with Pam3CSK4 first. Summed up: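 RAW264.7 mouse macrophages reverse-transfected with single siRNAs (100 nM final) for 48h, primed with Pam3CSK4 for 5 hours, then transfected with LipidA for 24 hour. Supernatant IL-1a read by HTRF; values normalized to negative-control median, log-transformed robust z-scores.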
In general terms: TR-FRET usually uses a lanthanide donor and a delayed reading to cut background.
As to CGUAUUCCAUGAAUUCUGUTT against Rnf121, the z-score is inactive: 0.266.

As to GGUACAAGAGAUUUGAAAATT against Wdpcp, the z-score is inactive: 0.717. As to GGCAGUAUGCUCCCAGAAUTT against Fndc4, the z-score is inactive: 1.88. The figure for GGCAGAAUGGCUAUCUAGATT against Ufl1 is inactive: -0.423; for GGCAUCACAGAAGGUUUAUTT against Rock2 it is active: 4.17; for GGCUCCUGUAAUGCUAACUTT against Zfp715 it is inactive: -0.191. To GGACUUUCGUGAUUGUAGATT against Prkdc belongs inactive: -0.647; to GGUAUUUCAGAUAACCUGGTT against Bbs12, active: 2.9; to GGACAGGUAAAAAUUUAGGTT against Npsr1, inactive: 0.54. To GGAACCUGUCCUAUAUAGGTT against Zfp799 belongs inactive: 0.668; to GGGUUGAACCUAUGUCAUCTT against Zfp764, inactive: -0.45. Take GGAGCAAAAGAAGAAGAACTT against Mtdh: the z-score was inactive: -0.886. In the case of GGUUCUGGCUCUUCUCUGUTT against Mogat2, the z-score was inactive: -1.42. The figure for GGGUGAAACCCAUAAAAAUTT against Zfp974 is inactive: -1.27; for GGAGACAGCUAAGAAACUGTT against Hsd11b2 it is inactive: -1.02.

As to GGAGAAGAGAAAAAAGGAUTT against Pla1a, the z-score was inactive: 0.0583. To GGGUAGAAGUUGAUGUCAUTT against Tmem79 belongs inactive: -0.342; to GGUCGGAAGCUGGUCUUUUTT against Pkdcc, inactive: 0.707. With CGGGUCACAAGGCUUCAAATT against Szrd1, the z-score was inactive: 0.576.

As to CCAAUCAAUUCUCAGCGACTT against Sufu, the z-score was inactive: 0.161. The figure for GCAAGUACAACCAUUGGUUTT against Bco1 is inactive: 0.555; for GGCCAAGAUCAUCUUUGUGTT against Ak1 it is inactive: -0.714; for GGAACACAUCAACAUUCACTT against Cttn it is inactive: 0.364. Regarding GGAAGUGAAGAUGAUGAAUTT against Cpsf3, the z-score is inactive: -0.831.

In the case of GGAGCUGCUAUAGAAGUACTT against Ankrd23, the z-score is inactive: 0.41. The figure for GCUGUUAUUCAAGGAAUUCTT against Lyrm7 is inactive: 0.537; for GCAAGAUCCAGAACACUCATT against Adora1 it is inactive: -0.781. The figure for CCAGAUGCAGUCACAAGUCTT against Klf4 is inactive: 0.843; for GGGAAAAAGAACAAGAUCATT against Cep57l1 it is inactive: -0.799. The figure for GCUAAUUUAUCCAAAGCCCTT against Dcun1d3 is inactive: 0.213; for GGAAGUCCUGGACAUUCAGTT against Nfkbie it is active: 5.66.

Turning to GGUGUCUGCCUUACCAUAUTT against Dyrk1a, the z-score is inactive: 0.581. The figure for GAAAGAGAGUAAAGAGCCGTT against Ly6i is inactive: -1.24. The figure for GCCAUACGAUCUGCAUUUCTT against Zbtb38 is inactive: -1.85. To GGACAUUUUUGACCACAUATT against Nat1 belongs inactive: 0.19.

Turning to GGCAGCACAAGAAAAAGAATT against Arid5a, the z-score is inactive: -0.723. With GGCUUUCCGCGCUAUUGAUTT against Pcmtd2, the z-score was inactive: -0.027. To GCAAUGUCGCCAAACGUAATT against Ikzf1 belongs inactive: 0.457.

As to CGUGCCUUACAAUUAUUCUTT against Chodl, the z-score is inactive: 0.379. Regarding GGAGGUGGGUUUAUUAUACTT against Rab3b, the z-score was inactive: 0.151. The figure for GCUGCGUGAACUCAACAUCTT against Rps7 is inactive: 0.484. CCGUAUCAUAACUAUCGCGTT against Zc3h18: the z-score was inactive: -0.451. GGUUAUGUUUUGUCACUCUTT against Slc38a10: the z-score was inactive: -0.594.

For the sequence GGGAGACUGUGAAGCUUUATT against Elk4, the z-score was active: 3.22. To CGUACUCCAACAACACUUUTT against Pdzd8 belongs inactive: -0.503. In the case of GGGCUUUGUGGAUGCGAUUTT against Exoc6, the z-score was inactive: 0.549.

Regarding GGCUUGAAUCACCAACCAGTT against Sgcz, the z-score was inactive: 0.224.

Regarding CCAGCAUUCACCUGACAAATT against Kif24, the z-score is inactive: 0.348. To GGAAGAAAAAUUGAAACACTT against Palmd belongs inactive: -0.801. The figure for GGAAGGUACAGGAAUCUCUTT against Arl6 is inactive: 1.1; for CGUUUGCUGGGUAUCAAUATT against Miox it is inactive: 0.0725. The figure for CCCAUGGCAAGUCCACACUTT against Phf2 is inactive: 0.309. Consider GGAAGACGUGAGAACAGCATT against Zfp704, for which the z-score is inactive: -0.224. To GGUGUGAGGAUCCUAGAGUTT against Ift22 belongs inactive: -0.956; to GCUCUGUGAGCGAAAGUUCTT against Synpo2, inactive: 1.72; to GGACAAAAACAAACAUGAGTT against Vwa3a, inactive: -0.665.

GCACAGCACUGCCUAAUGUTT against Vmn2r10: the z-score was inactive: -0.133. The figure for GGACUUGCUUUGGACACAUTT against Cd248 is inactive: 0.15; for GGAAAUGAGUCUCAACCAGTT against Larp4b it is inactive: 1.2; for GUUGUAUUUCUUUGUCCUCTT against Olfr1097 it is active: 2.21. The figure for GGGAUCAUUAAACUUUUCCTT against Taf11 is inactive: 0.46. To GGCUGAUGGAUUCUUAUUGTT against Ostn belongs inactive: -0.739; to GGCCUUGAAGAUCAUGAUCTT against Asb2, inactive: 0.378.

For CCGACUACAGCAUGUAUAUTT against Lcn9, the z-score was inactive: -0.436.

Turning to GCUUCACUCCACCUUUCAGTT against Prkcg, the z-score was inactive: 0.767.

For the sequence GGUGCGAAGGAAAUUGCACTT against Mrps26, the z-score was inactive: 1.

In the case of CUUGGUGGAUGAAAGAUUCTT against Tdpoz2, the z-score was inactive: -0.776. On to CCCUACAUAUAUCAAGAUUTT against Ephb6, for which the z-score was inactive: -0.896. The figure for GCUACUGAACGAGAAUGCCTT against Zc3h12a is inactive: 0.394; for GGUCUUGAUGGUAGAGAGCTT against Strc it is inactive: 1.12; for GGUGAUGAUUUAAGAAUCCTT against Sez6 it is inactive: 0.00556. The figure for GGAUGGAGAAGAUUUAAUGTT against Cul1 is inactive: -0.766.

Consider GGUAUCACAUCAACAGGCCTT against Klk1b8, for which the z-score was inactive: 0.37. The figure for GUGAGAAAUUCAAUCUUGGTT against Gstm3 is inactive: 0.203.

Turning to “GGAUACUUUAUGGUAUUUCTT against 9130023H24Rik”, the z-score was inactive: 1.45.

As to GGGAGUCGUAUUUAUAUUCTT against Itga5, the z-score is inactive: -0.154.

With GGUACACAACCAUCCUUGATT against Olfr600, the z-score is active: -2.33. GGACUCUCACCAAUAAAAGTT against Zadh2: the z-score was inactive: -1.29. To CCUCUCUGACUGGUUGAAGTT against Olfr345 belongs inactive: 0.102; to GGUCAUGAGUGAAUAAUGATT against Arih1, inactive: -0.339; to GCCAAUCUGAACUUGUGUUTT against Plet1, inactive: -0.931. The figure for GGCUAAGGGUAACGUGCUGTT against Bri3 is inactive: -0.263.

In the case of GGAGAGACUGUGAAUACAUTT against Ly96, the z-score was inactive: 1.07. Regarding CGUGGGAUCGAAUACAUAUTT against Iapp, the z-score was inactive: -0.453. Take GGAGAGGAGGUGGAAAAACTT against Rab11fip4: the z-score is inactive: -1.89. To CCAUCUAACCAAAUUCUGGTT against Agpat1 belongs inactive: 0.371. The figure for CCUAAACGAGGCCUUCGACTT against Ferd3l is inactive: -0.272. As to GCAUUGAAUUGCACUAUUGTT against Ints13, the z-score is inactive: -1.15. To CGCAAGGAAAUGCUUGACCTT against Elmo3 belongs inactive: -0.829; to CCUCUUACUGCUCUAUGGATT against Tspo2, inactive: -0.182; to GGAAGAAAACACCAUUUUUTT against Irf6, active: 3.12. With GGAUGAGCAGAGCAUCUGUTT against Triml1, the z-score is inactive: -0.243. The figure for GCGGCUAAUCGCCAAGAGATT against Arhgap9 is inactive: 0.317; for GCAUGAGGCUAAAUUGAAATT against Phldb2 it is inactive: -0.62; for GGACAAUCGGAACCUGUUUTT against Cacna2d2 it is inactive: -0.935. Consider CCUUACUGGGCAACUUGCUTT against Olfr1199, for which the z-score is inactive: 0.0219.

With GGUAUAUGGACUGGUGGAUTT against Hrh2, the z-score is inactive: 0.41.

As to GGUAACAGCAUUGAAGGUUTT against Cd93, the z-score is inactive: 0.924.

On to GCGAUACAUAUGUGAGUUUTT against Clec3a, for which the z-score is inactive: 1.57. The figure for GGCCUUUUCUUCUUUUUGUTT against Mill1 is inactive: 0.653; for GGAGACGUAUACAAAUGUCTT against Itga11 it is inactive: -1.16. The figure for GCUGAAUCUAGCUUCUCAUTT against Mad1l1 is inactive: -0.4. As to CCAUUAGUCAGAGAAUUGUTT against Tomm20, the z-score was inactive: 1.15. To GGAGCCUUGGUCCUUUGAUTT against Zcchc18 belongs inactive: -0.347; to GGGUUUCUUUGUGGUCUUGTT against Eif3f, inactive: -0.399; to GCGGUCUGUAUUCUUCUAGTT against Pdia6, inactive: -0.47. To GGUUUCAAGCUCUAAAGCUTT against Ccr1 belongs inactive: -0.405. The figure for CGAUCACACUCGAAAUCACTT against Nhsl1 is inactive: -1.24.
